# Results taken from patent publication US5425935A, “Imaging of infections” (British Technology Group Limited, priority 1991, dated 1995).
# Legend:
# [1] = 50 to 70MBq injected
# [2] = known; cited from earlier work
SMILES,uptake in the infected limb (images) [1],biodistribution ([1]; rabbit),renal excretion [2]
"O=C(O)c1cn(C2CC2)c2cc(N3CCNCC3)c(F)cc2c1=O [Tc-99m-ciprofloxacin, metal not drawn]",uptake in the infected limb,generally diffuse up-take throughout the body with main uptake in the kidneys and the liver,–
O=C(O)c1cn(C2CC2)c2cc(N3CCNCC3)c(F)cc2c1=O [parent ciprofloxacin],–,–,actively excreted from the renal tubules
